Measurements reported in PubChem BioAssay AID1259323 (Peter MacCallum Cancer Centre, 2017)
Shown is a random part of 715 reagents. In the full data, 91 (13%) are marked active. 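Active pools lower the sustained TRPV4 phase but spare the early PAR2 peak; PAR2 agonist and dose are not stated; pools repeat across wells.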 A number with no mark means an inactive call. Not given: the amount of reagent, the time to read-out.

- Purpose: 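Kinase siRNA screen linking the PAR2 receptor to the TRPV4 channel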 (primary screen)
- System: human HEK293 cells stably carrying inducible TRPV4
- Reagents: siRNA pool against human genes
- Treatment: PAR2 activation; agonist identity and dose not given
- Detection: 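Real-time Fura-2 calcium after PAR2 activation; early peak and later plateau each as % of mock-transfected wells on the plate, mean of two plates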
- Scale: TRPV4 plateau calcium, % of mock: higher = stronger sustained TRPV4 calcium entry than mock; PAR2 peak calcium, % of mock: higher = stronger early PAR2 calcium response than mock
- Rule for the call: 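Active when sustained TRPV4 plateau calcium falls below 90% of mock while the early PAR2 peak remains above 79% of mock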

TEC (GeneID 7006) showed TRPV4 plateau calcium, % of mock 94.4; PAR2 peak calcium, % of mock 88.7.
ITPK1 (GeneID 3705) scored TRPV4 plateau calcium, % of mock 78.8 (active); PAR2 peak calcium, % of mock 92.5.
Depletion of TESK1 (GeneID 7016) came out at: TRPV4 plateau calcium, % of mock 88.8 (active); PAR2 peak calcium, % of mock 93.
Silencing of DCLK2 (GeneID 166614) resulted in: TRPV4 plateau calcium, % of mock 93.1; PAR2 peak calcium, % of mock 97.6.
PANK3 (GeneID 79646) scored TRPV4 plateau calcium, % of mock 104; PAR2 peak calcium, % of mock 102.
MAP2K4 (GeneID 6416) showed TRPV4 plateau calcium, % of mock 97.4; PAR2 peak calcium, % of mock 96.7.
After knock-down of SRP72 (GeneID 6731), the screen gave TRPV4 plateau calcium, % of mock 87.2 (active); PAR2 peak calcium, % of mock 107.
Against DYRK1B (GeneID 9149) the deposit lists TRPV4 plateau calcium, % of mock 106; PAR2 peak calcium, % of mock 102.
TJP2 (GeneID 9414) gave TRPV4 plateau calcium, % of mock 107; PAR2 peak calcium, % of mock 110.
AXL (GeneID 558) scored TRPV4 plateau calcium, % of mock 101; PAR2 peak calcium, % of mock 99.9.
For VRK3 (GeneID 51231), the values are TRPV4 plateau calcium, % of mock 93.1; PAR2 peak calcium, % of mock 99.6.
With knock-down of SPEG (GeneID 10290) the results were TRPV4 plateau calcium, % of mock 99.8; PAR2 peak calcium, % of mock 100.

Just “PAR2 peak calcium, % of mock” (3 entries from above):
PANK3 (GeneID 79646): 102
MAP2K4 (GeneID 6416): 96.7
SRP72 (GeneID 6731): 107 (active)

Next results follow:
Silencing of FES (GeneID 2242) came out at: TRPV4 plateau calcium, % of mock 94.6; PAR2 peak calcium, % of mock 95.3.
Knock-down of MAP2K3 (GeneID 5606) resulted in: TRPV4 plateau calcium, % of mock 97.9; PAR2 peak calcium, % of mock 93.8.
Depletion of CDK5R2 (GeneID 8941) resulted in: TRPV4 plateau calcium, % of mock 92.4; PAR2 peak calcium, % of mock 96.2.
Against DGUOK (GeneID 1716) the deposit lists TRPV4 plateau calcium, % of mock 100; PAR2 peak calcium, % of mock 100.
TNK2 (GeneID 10188) gave TRPV4 plateau calcium, % of mock 93.4; PAR2 peak calcium, % of mock 90.8.
Knock-down of TEX14 (GeneID 56155) resulted in: TRPV4 plateau calcium, % of mock 90.4; PAR2 peak calcium, % of mock 87.4.
With knock-down of NEK2 (GeneID 4751) the results were TRPV4 plateau calcium, % of mock 84.9 (active); PAR2 peak calcium, % of mock 89.8.
Depletion of PAK2 (GeneID 5062) gave: TRPV4 plateau calcium, % of mock 109; PAR2 peak calcium, % of mock 103.
For MKNK1 (GeneID 8569), the entry reads TRPV4 plateau calcium, % of mock 103; PAR2 peak calcium, % of mock 97.3.
Against ITK (GeneID 3702), the entry reads TRPV4 plateau calcium, % of mock 107; PAR2 peak calcium, % of mock 95.7.
TWF1 (GeneID 5756) gave TRPV4 plateau calcium, % of mock 105; PAR2 peak calcium, % of mock 103.
With knock-down of DLG2 (GeneID 1740), the screen gave TRPV4 plateau calcium, % of mock 97.8; PAR2 peak calcium, % of mock 100.
Against CDK7 (GeneID 1022), the entry reads TRPV4 plateau calcium, % of mock 97; PAR2 peak calcium, % of mock 99.9.
Against ERBB4 (GeneID 2066), the values are TRPV4 plateau calcium, % of mock 97.4; PAR2 peak calcium, % of mock 97.8.
Depletion of PRKCA (GeneID 5578) resulted in: TRPV4 plateau calcium, % of mock 114; PAR2 peak calcium, % of mock 93.9.
